PubChem BioAssay AID248 (DTP/NCI, 2004)
The list does not hold the whole screen: it gathers tests that were run many times, whatever their T/C, doses with no T/C, and many T/C values between a quarter and a half above the control. Other doses and runs of a compound stand elsewhere. T/C is the treated group as % of the vehicle group. Some entries give survivors of the animals treated and no T/C: the source files T/C as zero there, which appears to mark a toxic dose or a test without result, not a measured value. Some doses without a T/C left all or most animals alive at the check, yet need not have been tolerated: the source hardly ever lists a survival T/C far under the control, and the zero likely stands for such cases as well. Counts of survivors are from the toxicity check (mostly the fifth day) where no day follows; animals may have died later. Schedules are NCI's codes, taken here to give the interval after Q, in days (D) or hours (H), and the number of doses after X. For survival time, this PubChem deposit counts one and a half times the control or more as active, and values a quarter to a half above the control carry no call in these data; other NCI protocols may use other cut-offs. Some entries were tested several times; their values stand side by side, smallest first.

System: L1210 leukemia ip in BDF1 mice, survival T/C
Test: NCI In Vivo Anticancer Drug Screen. Data for tumor model L1210 Leukemia (intraperitoneal) in B6D2F1 (BDF1) mice
Details: T/C endpoint: mean survival time, higher T/C = longer survival
[1] = dose: 200.0 mg/kg/injection, schedule: Q01DX001 (ip), vehicle: carboxymethylcellulose (CMC)
[2] = dose: 400.0 mg/kg/injection, schedule: Q04DX003 (ip), vehicle: saline
[3] = dose: 50.0 mg/kg/injection, schedule: Q04DX002 (ip), vehicle: Klucel (hydroxypropylcellulose) (HPC)
[4] = dose: 100.0 mg/kg/injection, schedule: Q04DX002 (ip), vehicle: Klucel (hydroxypropylcellulose) (HPC)
[5] = dose: 200.0 mg/kg/injection, schedule: Q04DX002 (ip), vehicle: Klucel (hydroxypropylcellulose) (HPC)
[6] = dose: 400.0 mg/kg/injection, schedule: Q04DX002 (ip), vehicle: Klucel (hydroxypropylcellulose) (HPC)
[7] = dose: 400.0 mg/kg/injection, schedule: Q01DX009 (ip), vehicle: Klucel (hydroxypropylcellulose) (HPC)

With S=P(NCCCCCNP(=S)(N1CC1)N1CC1)(N1CC1)N1CC1 the survivor count [1] was 5 of 6 and the survivor count (dose: 400.0 mg/kg/injection, schedule: Q01DX001 (ip), vehicle: carboxymethylcellulose (CMC)) was 4 of 6.

In the case of O=C(O)/C=C/c1ccncc1, the survivor count [2] is reported as 6 of 6.

In the case of COc1cc(N)c2nccc(N(C)C)c2c1, the survivor count (dose: 400.0 mg/kg/injection, schedule: Q01DX009 (ip), vehicle: saline) is reported as 2 of 6.

CC([NH-])C(C)[NH-].CC([NH-])C(C)[NH-].[Cl][Co][Cl] (stereo not drawn) was tested, and the survivor count (dose: 400.0 mg/kg/injection, schedule: Q04DX002 (ip), vehicle: saline) was 0 of 3.

In the case of Cc1c2ccccc2c(C)c2c1ccc1ccccc12, the T/C (dose: 12.37 mg/kg/injection, schedule: Q04DX003 (ip), vehicle: saline) is reported as 136 % of control, the T/C (dose: 12.5 mg/kg/injection, schedule: Q01DX001 (ip), vehicle: acetone) is reported as 126 % of control and the T/C (dose: 16.5 mg/kg/injection, schedule: Q01DX001 (ip), vehicle: acetone) is reported as 141 % of control. For the same compound, the T/C (dose: 18.75 mg/kg/injection, schedule: Q04DX003 (ip), vehicle: saline with Tween-80) was 137 % of control, the T/C (dose: 18.75 mg/kg/injection, schedule: Q04DX003 (ip), vehicle: saline) was 143 % of control and the T/C (dose: 25.0 mg/kg/injection, schedule: Q01DX001 (ip), vehicle: acetone) was 131 and 147 % of control. For the same compound, the T/C (dose: 28.12 mg/kg/injection, schedule: Q04DX003 (ip), vehicle: saline with Tween-80) was 130 % of control, the T/C (dose: 28.12 mg/kg/injection, schedule: Q04DX003 (ip), vehicle: saline) was 130 % of control and the T/C (dose: 37.5 mg/kg/injection, schedule: Q01DX001 (ip), vehicle: acetone) was 145 % of control.

With O=C1C=CC(=O)C2C1C1(Cl)CC2(Cl)C(Cl)=C1Cl (stereo not drawn) the survivor count [3] was 3 of 3, the survivor count [4] was 0 of 3 and the survivor count [5] was 0 of 3. The survivor count [6] was 0 of 3.

For O=C(CCl)N(c1ccccc1)c1ccccc1, the survivor count [3] was 2 of 3, the survivor count [4] was 3 of 3 and the survivor count [5] was 0 of 3. The survivor count [6] was 0 of 3.

CCCCOc1ccc(NC(=O)CCl)cc1 was tested, and the survivor count (dose: 200.0 mg/kg/injection, schedule: Q04DX003 (ip), vehicle: saline with Tween-80) was 4 of 6 and the survivor count (dose: 400.0 mg/kg/injection, schedule: Q04DX003 (ip), vehicle: saline with Tween-80) was 0 of 6.

For O=C1OC(=O)c2c1cccc2[N+](=O)[O-], the survivor count (dose: 200.0 mg/kg/injection, schedule: Q01DX009 (ip), vehicle: saline with Tween-80) was 3 of 6 and the survivor count (dose: 400.0 mg/kg/injection, schedule: Q01DX009 (ip), vehicle: saline with Tween-80) was 0 of 6.

c1ccc(Nc2nc(Nc3ccccc3)nc(Nc3ccccc3)n2)cc1 was tested, and the survivor count [4] was 3 of 3, the survivor count [5] was 2 of 3 and the survivor count [6] was 0 of 3.

For CC(C)(C)OC(=O)NC(CC(=O)OCc1ccccc1)C(=O)O (stereo not drawn), the survivor count (dose: 200.0 mg/kg/injection, schedule: Q01DX009 (ip), vehicle: Klucel (hydroxypropylcellulose) (HPC)) was 6 of 6 and the survivor count [7] was 6 of 6.

For CC(C)Nc1nc(Cl)nc(NC(C)C)n1, the survivor count (dose: 100.0 mg/kg/injection, schedule: Q04DX003 (ip), vehicle: Klucel (hydroxypropylcellulose) (HPC)) was 0 of 6.

CCCCC[N+](C)(C)CCOC(=O)C1C2CC3OC(=O)C1C3C2 (stereo not drawn) was tested, and the survivor count (dose: 200.0 mg/kg/injection, schedule: Q04DX003 (ip), vehicle: saline) was 4 of 4 and the survivor count [2] was 0 of 4.

With COc1ccc(OC(=O)Nc2cc(C)ccc2C)cc1 the survivor count [7] was 5 of 6.

Nc1ccc2oc(=O)c(C(=O)O)cc2c1 was tested, and the survivor count (dose: 400.0 mg/kg/injection, schedule: Q01DX001 (ip), vehicle: Klucel (hydroxypropylcellulose) (HPC)) was 0 of 3.

With COc1ccc(OC)c2[nH]c(=O)c(CCC(=O)O)nc12 the survivor count (dose: 400.0 mg/kg/injection, schedule: Q04DX003 (ip), vehicle: other) was 6 of 6.

For O=C(CCN1CC2CCC(CC2)C1)c1csc2ccccc12, the T/C [1] was 147 % of control.
